No constants are given. Whether binding was seen depends on the method and setting. Some results given as binding are weak or reduced against the parent protein; the word gives no strength.
Assays:
[1] = biological target: insulin receptor (IR) of Fao rat hepatoma cells (rat (Fao rat hepatoma cells)) (UniProt P15127); test: discussion of the in vitro IR binding assay
[2] = biological target: insulin receptor (IR) of Fao rat hepatoma cells (rat (Fao rat hepatoma cells)) (UniProt P15127); test: in vitro binding of IRS-1 from cell extracts to WGA-immobilised IR, immunoblot
[3] = biological target: insulin receptor (IR) of Fao rat hepatoma cells (rat (Fao rat hepatoma cells)) (UniProt P15127); test: in vitro binding of IRS-1 from cell extracts to WGA-immobilised IR, immunoblot; cells treated with insulin for 60 min

Amino acid sequences for entries named in this document (tags omitted). Residues count along the entry.
UniProt P15127, residues 27-1383: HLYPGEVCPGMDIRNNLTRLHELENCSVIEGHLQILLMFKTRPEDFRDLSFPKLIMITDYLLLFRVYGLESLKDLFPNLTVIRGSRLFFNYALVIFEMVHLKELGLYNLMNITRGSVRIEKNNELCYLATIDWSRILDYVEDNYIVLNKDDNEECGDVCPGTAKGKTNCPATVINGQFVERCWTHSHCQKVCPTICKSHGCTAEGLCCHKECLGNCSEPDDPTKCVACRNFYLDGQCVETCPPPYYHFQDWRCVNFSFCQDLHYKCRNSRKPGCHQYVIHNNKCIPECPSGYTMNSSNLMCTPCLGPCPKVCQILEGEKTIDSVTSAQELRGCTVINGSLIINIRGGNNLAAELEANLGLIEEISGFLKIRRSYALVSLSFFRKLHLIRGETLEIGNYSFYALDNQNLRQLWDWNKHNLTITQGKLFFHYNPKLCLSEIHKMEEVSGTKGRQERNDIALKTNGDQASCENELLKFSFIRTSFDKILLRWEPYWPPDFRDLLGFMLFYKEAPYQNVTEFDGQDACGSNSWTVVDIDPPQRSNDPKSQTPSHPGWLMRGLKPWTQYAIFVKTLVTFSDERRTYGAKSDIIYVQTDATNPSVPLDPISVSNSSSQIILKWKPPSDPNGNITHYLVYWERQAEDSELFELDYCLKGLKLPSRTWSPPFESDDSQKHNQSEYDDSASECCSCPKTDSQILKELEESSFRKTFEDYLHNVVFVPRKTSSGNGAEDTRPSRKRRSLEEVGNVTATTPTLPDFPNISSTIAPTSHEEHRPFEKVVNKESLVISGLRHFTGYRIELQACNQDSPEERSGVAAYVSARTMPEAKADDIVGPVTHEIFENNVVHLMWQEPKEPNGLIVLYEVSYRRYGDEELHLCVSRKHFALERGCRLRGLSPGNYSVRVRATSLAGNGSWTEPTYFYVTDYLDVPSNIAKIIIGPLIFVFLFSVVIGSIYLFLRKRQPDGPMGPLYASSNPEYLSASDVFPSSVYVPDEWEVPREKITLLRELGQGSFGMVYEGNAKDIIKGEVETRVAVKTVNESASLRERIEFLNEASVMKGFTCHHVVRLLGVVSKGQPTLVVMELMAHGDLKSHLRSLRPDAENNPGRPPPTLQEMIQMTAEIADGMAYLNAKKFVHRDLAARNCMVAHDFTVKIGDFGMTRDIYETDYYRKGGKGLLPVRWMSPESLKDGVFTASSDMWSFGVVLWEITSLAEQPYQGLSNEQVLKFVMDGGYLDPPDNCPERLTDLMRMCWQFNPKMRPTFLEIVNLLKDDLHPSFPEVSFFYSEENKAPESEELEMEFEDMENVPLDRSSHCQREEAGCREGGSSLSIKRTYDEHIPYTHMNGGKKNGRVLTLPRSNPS

Measured: binding

IRS-1^7A (mouse IRS-1 with S265, S302, S325, S336, S358, S407 and S408 mutated to Ala, stably overexpressed in CHO-T cells) (from UniProt P35569 1-1233)
binds: all assays above
